Results are given in words; binding and its absence hold for the method and conditions named. In cells and extracts the contact can be indirect. Some results given as binding are weak or reduced against the parent protein; the word gives no strength. For some assays here: Sequences can lack the tags named with a protein.
T1: Flag-ATL1 R77A (human) (UniProt Q8WXF7)
T1 sequence: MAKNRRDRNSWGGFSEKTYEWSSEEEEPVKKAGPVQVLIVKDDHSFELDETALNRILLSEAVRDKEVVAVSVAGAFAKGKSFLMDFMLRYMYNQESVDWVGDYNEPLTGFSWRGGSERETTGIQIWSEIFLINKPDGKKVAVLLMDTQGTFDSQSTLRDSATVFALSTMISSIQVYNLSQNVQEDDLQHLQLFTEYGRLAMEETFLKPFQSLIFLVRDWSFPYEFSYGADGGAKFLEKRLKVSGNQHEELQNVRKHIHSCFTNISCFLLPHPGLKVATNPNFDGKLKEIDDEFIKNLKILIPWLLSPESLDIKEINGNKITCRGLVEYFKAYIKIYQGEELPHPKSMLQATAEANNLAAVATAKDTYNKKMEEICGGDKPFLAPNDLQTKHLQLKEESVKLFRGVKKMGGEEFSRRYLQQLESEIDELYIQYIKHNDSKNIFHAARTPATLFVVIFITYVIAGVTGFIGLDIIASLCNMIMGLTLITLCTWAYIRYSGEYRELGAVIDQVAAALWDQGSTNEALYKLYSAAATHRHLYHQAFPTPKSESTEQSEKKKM

Protein sequences, listed by entry. Tags and fused reporters are not part of them. Lines headed by an entry give the natural chain unless they say otherwise; changes in a name come on top.
UniProt Q9C0E8: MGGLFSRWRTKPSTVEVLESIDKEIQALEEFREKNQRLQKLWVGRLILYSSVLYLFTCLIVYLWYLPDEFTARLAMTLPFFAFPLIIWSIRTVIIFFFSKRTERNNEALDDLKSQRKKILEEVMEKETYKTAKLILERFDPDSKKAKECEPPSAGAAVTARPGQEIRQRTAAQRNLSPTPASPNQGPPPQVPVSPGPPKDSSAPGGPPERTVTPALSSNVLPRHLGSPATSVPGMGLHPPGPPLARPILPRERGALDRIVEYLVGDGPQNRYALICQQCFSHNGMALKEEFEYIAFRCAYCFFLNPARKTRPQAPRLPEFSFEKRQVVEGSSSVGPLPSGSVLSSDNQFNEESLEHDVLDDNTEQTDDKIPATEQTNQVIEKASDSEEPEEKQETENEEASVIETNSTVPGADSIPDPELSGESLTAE

T2: Flag-ATL3 (human) (UniProt Q6DD88)
T2 sequence: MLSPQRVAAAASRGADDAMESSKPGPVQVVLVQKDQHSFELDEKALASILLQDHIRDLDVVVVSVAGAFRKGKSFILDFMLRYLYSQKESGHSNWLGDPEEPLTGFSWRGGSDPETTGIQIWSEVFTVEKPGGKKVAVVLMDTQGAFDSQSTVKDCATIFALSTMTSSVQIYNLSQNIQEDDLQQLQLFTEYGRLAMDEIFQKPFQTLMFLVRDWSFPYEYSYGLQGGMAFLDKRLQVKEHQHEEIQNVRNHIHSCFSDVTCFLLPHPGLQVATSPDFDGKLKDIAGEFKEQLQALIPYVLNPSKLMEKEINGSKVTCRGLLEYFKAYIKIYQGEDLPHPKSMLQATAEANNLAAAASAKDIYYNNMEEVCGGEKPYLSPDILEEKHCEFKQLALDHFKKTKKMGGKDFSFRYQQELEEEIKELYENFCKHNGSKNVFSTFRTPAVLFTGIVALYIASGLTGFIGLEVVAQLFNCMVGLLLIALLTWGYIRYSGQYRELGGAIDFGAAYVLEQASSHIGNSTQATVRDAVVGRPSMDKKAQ

T3: Flag-ATL1 (human) (UniProt Q8WXF7)
T3 sequence: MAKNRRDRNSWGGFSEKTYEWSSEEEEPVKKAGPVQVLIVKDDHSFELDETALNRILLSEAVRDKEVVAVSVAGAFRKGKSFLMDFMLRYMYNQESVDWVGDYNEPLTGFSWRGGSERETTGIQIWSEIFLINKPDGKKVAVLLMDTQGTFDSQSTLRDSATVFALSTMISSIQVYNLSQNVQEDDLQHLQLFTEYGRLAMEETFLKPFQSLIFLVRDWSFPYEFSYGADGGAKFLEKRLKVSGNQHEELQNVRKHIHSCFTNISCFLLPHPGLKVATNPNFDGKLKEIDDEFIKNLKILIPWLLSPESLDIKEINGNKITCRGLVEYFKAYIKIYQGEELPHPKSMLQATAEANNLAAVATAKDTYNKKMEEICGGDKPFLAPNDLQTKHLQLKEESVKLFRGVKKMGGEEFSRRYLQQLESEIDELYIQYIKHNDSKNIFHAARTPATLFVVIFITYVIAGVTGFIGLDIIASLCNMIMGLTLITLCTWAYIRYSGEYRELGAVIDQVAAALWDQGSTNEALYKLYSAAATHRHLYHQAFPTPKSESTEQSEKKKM


How the values were obtained:
[1] = target: full-length, C-terminal, Flag-tagged human Lnp (human) (UniProt Q9C0E8); assay: co-IP; Lnp-Myc co-expressed with Lnp-Flag or Flag-tagged truncations in COS-7 cells; Flag-tagged protein precipitated by anti-Flag agarose from lysates with 1% Triton X-100; blot with anti-Flag and anti-Myc
Flag-ATL1 R77A (human) = target: T1, Flag-ATL1 R77A (human); assay: co-IP; Flag-ATLs and Lnp-Myc co-transfected into COS-7 cells; Flag-ATLs precipitated by anti-Flag agarose from lysates with 1% Triton X-100; blot with anti-Myc and anti-Flag
Flag-ATL3 (human) = target: T2, Flag-ATL3 (human); assay: as above
Flag-ATL1 (human) = target: T3, Flag-ATL1 (human); assay: as above
Lnp G2A (human) = Lnp G2A (human) (UniProt Q9C0E8); assay: co-IP; Fig. S3B; legend not shown; Lnp G2A against ATL1, ATL2 and ATL3
[2] = target: full-length, C-terminal, Flag-tagged human Lnp (human) (UniProt Q9C0E8); assay: as above
[3] = target: full-length, C-terminal, Flag-tagged human Lnp (human) (UniProt Q9C0E8); assay: co-IP; Myc-ATL3 co-expressed with Flag-tagged wild-type or mutant Lnp in COS-7 cells; Lnp-Flag proteins precipitated by anti-Flag agarose from lysates with 1% Triton X-100; blot with anti-Flag and anti-Myc

binding [1]	binding (Flag-ATL1 R77A (human))	binding (Flag-ATL3 (human))	binding (Flag-ATL1 (human))	binding (Lnp G2A (human))	binding [2]	binding [3]	Molecule
binds	binds	binds	binds weakly				C-terminal Myc-tagged wild-type human Lnp (from UniProt Q9C0E8 1-428)
				binds			ATL1 (Fig. S3B) (protein, UniProt Q8WXF7 1-558) MAKNRRDRNSWGGFSEKTYEWSSEEEEPVKKAGPVQVLIVKDDHSFELDETALNRILLSEAVRDKEVVAVSVAGAFRKGKSFLMDFMLRYMYNQESVDWVGDYNEPLTGFSWRGGSERETTGIQIWSEIFLINKPDGKKVAVLLMDTQGTFDSQSTLRDSATVFALSTMISSIQVYNLSQNVQEDDLQHLQLFTEYGRLAMEETFLKPFQSLIFLVRDWSFPYEFSYGADGGAKFLEKRLKVSGNQHEELQNVRKHIHSCFTNISCFLLPHPGLKVATNPNFDGKLKEIDDEFIKNLKILIPWLLSPESLDIKEINGNKITCRGLVEYFKAYIKIYQGEELPHPKSMLQATAEANNLAAVATAKDTYNKKMEEICGGDKPFLAPNDLQTKHLQLKEESVKLFRGVKKMGGEEFSRRYLQQLESEIDELYIQYIKHNDSKNIFHAARTPATLFVVIFITYVIAGVTGFIGLDIIASLCNMIMGLTLITLCTWAYIRYSGEYRELGAVIDQVAAALWDQGSTNEALYKLYSAAATHRHLYHQAFPTPKSESTEQSEKKKM
				binds	binds	binds	Myc-ATL3 (protein, UniProt Q6DD88 1-541) MLSPQRVAAAASRGADDAMESSKPGPVQVVLVQKDQHSFELDEKALASILLQDHIRDLDVVVVSVAGAFRKGKSFILDFMLRYLYSQKESGHSNWLGDPEEPLTGFSWRGGSDPETTGIQIWSEVFTVEKPGGKKVAVVLMDTQGAFDSQSTVKDCATIFALSTMTSSVQIYNLSQNIQEDDLQQLQLFTEYGRLAMDEIFQKPFQTLMFLVRDWSFPYEYSYGLQGGMAFLDKRLQVKEHQHEEIQNVRNHIHSCFSDVTCFLLPHPGLQVATSPDFDGKLKDIAGEFKEQLQALIPYVLNPSKLMEKEINGSKVTCRGLLEYFKAYIKIYQGEDLPHPKSMLQATAEANNLAAAASAKDIYYNNMEEVCGGEKPYLSPDILEEKHCEFKQLALDHFKKTKKMGGKDFSFRYQQELEEEIKELYENFCKHNGSKNVFSTFRTPAVLFTGIVALYIASGLTGFIGLEVVAQLFNCMVGLLLIALLTWGYIRYSGQYRELGGAIDFGAAYVLEQASSHIGNSTQATVRDAVVGRPSMDKKAQ

Source: paper PMC6588657 (2018)
